Measured values: patent US20250114467A1 (SHANGHAI FUDAN ZHANGJIANG BIO PHARMACEUTICAL, published 2025)
Residue numbers refer to the chain shown, from its start. These are yes or no findings as the source states them, for the method shown. Some entries that bind do so weakly or less than the wild type.

The chains behind the UniProt entries cited, without tags or fusion partners. Where a name states a change or a piece, a line headed by the entry shows the natural chain unless it says otherwise. A line that says so, or that is headed by a name, gives the form on record, which may keep a tag or linker. Residues count along the entry.
UniProt Q9NYJ7: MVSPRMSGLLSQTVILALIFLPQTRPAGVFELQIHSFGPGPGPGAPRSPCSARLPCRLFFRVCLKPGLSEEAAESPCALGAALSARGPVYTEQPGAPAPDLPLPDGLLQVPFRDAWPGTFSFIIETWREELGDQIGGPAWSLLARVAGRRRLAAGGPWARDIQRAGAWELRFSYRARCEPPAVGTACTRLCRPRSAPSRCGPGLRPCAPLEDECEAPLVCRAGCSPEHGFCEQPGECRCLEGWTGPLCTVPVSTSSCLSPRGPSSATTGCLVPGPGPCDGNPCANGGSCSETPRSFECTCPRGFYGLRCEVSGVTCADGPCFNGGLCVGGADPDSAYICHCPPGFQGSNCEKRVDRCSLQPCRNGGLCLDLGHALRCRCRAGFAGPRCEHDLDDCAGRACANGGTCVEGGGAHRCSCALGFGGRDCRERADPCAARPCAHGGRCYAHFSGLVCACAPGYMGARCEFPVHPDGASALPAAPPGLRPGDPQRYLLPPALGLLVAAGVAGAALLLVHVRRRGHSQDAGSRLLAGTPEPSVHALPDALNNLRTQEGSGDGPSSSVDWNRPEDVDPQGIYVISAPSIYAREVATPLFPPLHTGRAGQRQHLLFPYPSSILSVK
human DLL3, His tag (acrobiosystems, DL3-H52H4): residues 27-492 of Q9NYJ7
recombinant DLL3 protein (purchased from ACRO, DL3-H5255): residues 27-479 of Q9NYJ7
UniProt O00548, residues 18-540: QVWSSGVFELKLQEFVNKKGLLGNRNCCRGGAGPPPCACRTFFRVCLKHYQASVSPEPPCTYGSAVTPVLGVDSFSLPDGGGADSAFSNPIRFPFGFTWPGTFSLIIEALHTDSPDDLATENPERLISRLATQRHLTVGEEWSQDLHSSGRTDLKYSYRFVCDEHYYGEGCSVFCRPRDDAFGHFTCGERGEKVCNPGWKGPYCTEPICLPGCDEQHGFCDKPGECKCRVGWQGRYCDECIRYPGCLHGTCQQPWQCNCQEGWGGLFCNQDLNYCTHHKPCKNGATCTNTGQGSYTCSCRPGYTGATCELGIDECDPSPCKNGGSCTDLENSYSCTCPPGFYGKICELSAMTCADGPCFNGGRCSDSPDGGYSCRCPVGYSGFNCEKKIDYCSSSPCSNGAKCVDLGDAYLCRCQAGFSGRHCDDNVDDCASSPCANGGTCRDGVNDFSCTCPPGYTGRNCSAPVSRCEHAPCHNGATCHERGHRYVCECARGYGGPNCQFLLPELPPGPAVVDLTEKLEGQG
UniProt O88516, residues 33-592: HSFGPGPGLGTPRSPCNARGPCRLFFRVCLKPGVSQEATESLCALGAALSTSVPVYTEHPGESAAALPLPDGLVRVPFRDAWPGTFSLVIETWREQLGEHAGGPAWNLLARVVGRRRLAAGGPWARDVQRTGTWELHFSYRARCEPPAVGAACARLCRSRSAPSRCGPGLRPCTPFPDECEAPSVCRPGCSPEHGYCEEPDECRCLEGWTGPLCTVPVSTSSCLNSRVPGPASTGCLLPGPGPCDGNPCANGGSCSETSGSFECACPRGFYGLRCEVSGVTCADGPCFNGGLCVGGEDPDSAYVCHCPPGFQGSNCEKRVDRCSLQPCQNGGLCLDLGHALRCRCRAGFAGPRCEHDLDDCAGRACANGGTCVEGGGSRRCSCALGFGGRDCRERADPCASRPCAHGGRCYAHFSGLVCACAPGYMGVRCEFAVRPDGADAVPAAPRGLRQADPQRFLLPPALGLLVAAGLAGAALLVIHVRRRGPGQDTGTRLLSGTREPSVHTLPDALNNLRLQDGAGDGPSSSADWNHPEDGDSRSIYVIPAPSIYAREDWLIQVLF

B1: ch4H7 (antibody, human IgG1, kappa, V domains shown)
VH: EVQLQQSGAELVRPGALVKLSCKASGFNFKDYYIHWVKQRPELGLEWIGWIDPENGNAIYDPKFQDKASITADTSSNTAYLHLSSLTSEGTAVYYCASEDAYYPFAYWGQGTLVTVSA
VL: DIVMSQSPSSLAVSVGEKVTMRCKSSQSLLYSSNQKNYLAWYQQKPGQSPKLLIYWASTRESGVPDRFTGSGSGTDFTLTISSVKAEDLAVYFCQQYYSYRTFGGGTKLEIKR
notes: Chimeric: murine variable regions on human IgG1 heavy and kappa light constant regions; also called chimeric antibody 4H7
B2: FDA031 (antibody, human IgG1, kappa, V domains shown)
VH: QVQLVQSGAEVKKPGASVKVSCKASGYTFTRYWIHWIRQAPGQGLEWMGYINPTTVYTEFNQNFKDRVTMTRDTSTSTVYMELSSLRSEDTAVYYCARGGSNFFDYWGQGTTVTVSS
VL: AIQLTQSPSSLSASVGDRVTITCRASENIYYNLAWYQQKPGKAPKLLIYTANSLEDGVPSRFSGSGSGTDFTLTISSLQPEDFATYFCKQAYDVPPTFGGGTKLEIKR
notes: also called anti-DLL3 antibody FDA031
B3: ch1A5 (antibody, human IgG1, kappa, V domains shown)
VH: EVQLQQSGPELVKPGASVKISCKTSGYTFTESAMHWVKQSHGKSLEWIGGINPNNGGISYSQKFKGKATLTVDKSSSTAYMELRSLTSEDSAVYYCGSSYYRDYFDYWGQGTTLTVSS
VL: NIVMTQSPESMSMSVGERVTLSCKASENVGTYVSWYQQKPDQSPKLLIYGASNRYTGVPDRFTGSGSATHFTLTISSVQAEDLADYHCGQSYSYPLTFGAGTKLELKR
notes: Chimeric: murine variable regions on human IgG1 heavy and kappa light constant regions, expressed in 293F cells; also called chimeric antibody 1A5
B4: ch33F11 (antibody, human IgG1, kappa, V domains shown)
VH: B3 VH with S32N, A33T, K43E, N54R, G57V, I58T, S61N, G97T, S98N, S99T
VL: B3 VL with E9K, A68P, H70D, S77R, V78M, D85H, H87Y, S91T, S93T
notes: Chimeric: murine variable regions on human IgG1 heavy and kappa light constant regions; also called chimeric antibody 33F11
B5: ch32E8 (antibody, human IgG1, kappa, V domains shown)
VH: QVTLKESGPGILQPSQTLSLTCSFSGFSLSTSGMGVGWIRQPSGKGLEWLALIWWDDVKRYHPALKSRLTISKDTSSSQVFLKIASVDTADTATYYCARIAEVTGQVGLHYAMDYWGQGTSVTVSS
VL: QTVLTQSPAIMSASLGERVTMTCTASSSVNSSSLHWYQQKPGSSPKLWIYTTSNLASGVPARFSGSGSGTSYSLTISSMEAEDAATYYCHQFHRSPFTFGSGTKLEIKR
notes: Chimeric: murine variable regions on human IgG1 heavy and kappa light constant regions; also called chimeric antibody 32E8
B6: ch6A2 (antibody, human IgG1, kappa, V domains shown)
VH: EVQLQQSGPELVKPGASVKISCKASGYTFTDYNMNWVKQSQGKSLEWIGYIYPYNGGTGYNQKFKTKATLTVDNSSSTAYMEFRSLTSEDSAVYYCARSDPYYTMDYWGQGTSVTVSS
VL: IIVMTQTPKFLLVSAGDRVTISCKASQSVNNDVAWYQQKPGQSPKLLIYFTSNRFTGVPDRFTGSGYGTDFTFTISSVQAEDLAVYFCQQDHNSPYTFGGGTKLEIKR
notes: Chimeric: murine variable regions on human IgG1 heavy and kappa light constant regions; also called chimeric antibody 6A2
B7: ch10B1 (antibody, human IgG1, kappa, V domains shown)
VH: DVKLVESGGGLVKPGGSLKLSCAASGFTFSNYTISWVRQTPEKRLEWVATFSSGGSYTYYSDSVKGRFTISRDNAKNTLYLQMSSLKSEDTAMYYCSRDRRSDGYYHLYAMDYWGQGTSVTVSS
VL: DIQMTQTTSSLSASLGDRVTISCRASQDISHYLNWYQQKPDGTVKLLIYYTSRLHSGVPSRFSGSGSGTAYSLTISNLEQEDIATYFCQQGYTLPLTFGAGTKLELKR
notes: Chimeric: murine variable regions on human IgG1 heavy and kappa light constant regions; also called chimeric antibody 10B1
B8: ch26D9 (antibody, human IgG1, kappa, V domains shown)
VH: EVQLQQSGPELVKPGASVKMSCKASGYTFTTYVMHWVKQKPGQGLEWIGYINPYNDDTNYNEKFKGKATLTSDKSSSTAYMELSSLTSEDSAVYYCARWGLTGTGDYYAMDYWGQGTSVTVSS
VL: DIQMTQSPASLSASVGETVTITCRASGNVHNYLAWYQQKQGRSPQVLVYNAKTLADGVPSRFSGSGSGTQYSLKINSLLPEDFGSYYCQHFWTTPWTFGGGTTLEIKR
notes: Chimeric: murine variable regions on human IgG1 heavy and kappa light constant regions; also called chimeric antibody 26D9
B9: ch36H10 (antibody, human IgG1, kappa, V domains shown)
VH: EVQFQQSGPELVKPGASVKISCKASGYTFTDYNIHWVRQSQGKSLEWIGLIYPFNGGIVYNQKFKSKATLTVDNSSTSAYMELRSLSSEDSAVYFCARLNWEGYWGQGSTLIVSS
VL: DIKMTQSPSSIYAFLGERVTITCKASQDINSYLSWFQQKPGKSPKTLIYRANRLVGGVPSRFSGSGSGQDYSLTISSLEYEDVGDYYCLQYAEFPYTFGGGTKLEIKR
notes: Chimeric: murine variable regions on human IgG1 heavy and kappa light constant regions; also called chimeric antibody 36H10
B10: ch19C7 (antibody, human IgG1, kappa, V domains shown)
VH: EVQLQQSGPELVRPGASVRMSCKASGYTFTYYVMHWVKQKPGLGLEWIGYINPYNDGTEYNEKFKGKATLTSDKSSSTAFMELSSLTSEDSAVYYCARWLLREYAMDYWGQGTSVTVSS
VL: B8 VL with G27D, V29I, R42K, V46L, L79Q, T93S, T103K
notes: Chimeric: murine variable regions on human IgG1 heavy and kappa light constant regions; also called chimeric antibody 19C7
B11: ch23G2 (antibody, human IgG1, kappa, V domains shown)
VH: QVQLQQSGPELVRPGVSVKISCKGSGYTFTDYAIHWVKQSRAKSPEWIGIVSTDSGKTSFNQKFKGKATMTVDKSSTTAYMELVRLTSEDSAIYYCARNPYYDYDGYAMDYWGQGTSVTVSS
VL: DIQMTQSSSYLSVSLGGRVTIICKASDHINNWLAWYQQKPGNAPRLIISGATSLETGVPSRFSGSGSGKDYTLSITSLQTEDVATYYCQQYWSIPYTFGGGTKLEIKR
notes: Chimeric: murine variable regions on human IgG1 heavy and kappa light constant regions; also called chimeric antibody 23G2
B12: FDA027 (antibody, human IgG1, kappa, V domains shown)
VH: QVQLVQSGAEVKKPGASVKVSCKASGYTFTNYGMNWVRQAPGQGLEWMGWINTYTGEPTYADDFKGRVTMTTDTSTSTAYMELRSLRSDDTAVYYCARIGDSSPSDYWGQGTLVTVSS
VL: EIVMTQSPATLSVSPGERATLSCKASQSVSNDVVWYQQKPGQAPRLLIYYASNRYTGIPARFSGSGSGTEFTLTISSLQSEDFAVYYCQQDYTSPWTFGQGTKLEIKR
notes: also called anti-DLL3 antibody FDA027
B13: ch13C2 (antibody, human IgG1, kappa, V domains shown)
VH: EVKLVESGGGLVKPGGSLKLSCAASGFAFSSYDMSWVRQTPEKRLEWVATISSGGSYTYYPDSVKGRFTISRDNGRNTLYLQMSSLRSEDTALYYCASPLLGLRFAYWGQGTLVTVSA
VL: QAVVTQESALTTSPGETVTLTCRSSTGAVTTINYANWVQEKPDHLFTGLIGGTNNRAPGVPARFSGSLIGDKAALTITGAQTEDEAIYFCALYYSNHWVFGGGTKLTVLR
notes: Chimeric: murine variable regions on human IgG1 heavy and kappa light constant regions; also called chimeric antibody 13C2
B14: ch15G2 (antibody, human IgG1, kappa, V domains shown)
VH: EVQLQQSGPELEKPGASVRISCKASGYSFTDYNMHWVKQSNGKSLEWIGNIDPYYGGTNYNQKFEGKATLTVDKSSSTAYMQLKSLTSEDSAVYYCARGGNNYGDYWGQGTTLTVSS
VL: DIQMTQSPASLAASVGETVTITCRASENIYYSLAWYQQKQGKSPQLLIFNANSLEDGVPSRFSGSGSGTQYSMKINSMQPEDTATYFCKQAYDVPWTFGGGTKLEIKR
notes: Chimeric: murine variable regions on human IgG1 heavy and kappa light constant regions; also called chimeric antibody 15G2

These binders were tested against recombinant DLL3 protein (purchased from ACRO, DL3-H5255) (human) (UniProt Q9NYJ7) (assay: ELISA on plate-coated human DLL3 protein (1 µg/ml, method of Example 3-1), OD 450 nm [left panel]).

binding, binds:
B1, B2, B3, B4, B5

The binders below were run against human DLL1 (purchased from Acro, DL1-H52H8) (human) (UniProt O00548) (assay: ELISA, plate-coated hDLL1 1 µg/ml).

binding, binds:
B1

These binders were tested against mouse DLL3 on overexpressing cells (plasmid pCMV3-mDLL3, MG58052-UT) (mouse) (UniProt O88516) (assay: flow cytometry on cells overexpressing mouse DLL3).

binding, binds:
B6, B7, B8, B1, B9, B10, B3, B11, B4

The binders below were run against human DLL1 (purchased from Acro, DL1-H52H8) (human) (UniProt O00548) (assay: ELISA on plate-coated human DLL1 protein (1 µg/ml), HRP goat anti-human secondary, OD 450 nm [left panel]).

binding, binds:
B1

Each binder was assayed against mouse DLL3 on overexpressing cells (plasmid pCMV3-mDLL3, MG58052-UT) (mouse) (UniProt O88516) (assay: flow cytometry on cells overexpressing mouse DLL3, APC goat anti-human IgG, MFI [left panel]).

binding, binds:
B12, B6, B7, B8, B1, B2, B9, B10, B3, B11, B4

The binders below were run against recombinant DLL3 protein (purchased from ACRO, DL3-H5255) (human) (UniProt Q9NYJ7) (assay: ELISA, plate-coated human DLL3 protein).

binding, binds:
B6, B7, B13, B14, B8, B1, B9, B10, B3, B11, B4, B5

What follows are binders tested against human DLL3, His tag (acrobiosystems, DL3-H52H4) (human) (UniProt Q9NYJ7) (assay: BLI (Octet 96e)).

binding, binds:
B1

The binders below were run against recombinant DLL3 protein (purchased from ACRO, DL3-H5255) (human) (UniProt Q9NYJ7) (assay: ELISA on plate-coated human DLL3 protein (1 µg/ml, method of Example 3-1), OD 450 nm [left and right panel]).

binding, binds:
B12

What follows are binders tested against recombinant DLL3 protein (purchased from ACRO, DL3-H5255) (human) (UniProt Q9NYJ7) (assay: ELISA on plate-coated human DLL3 protein (1 µg/ml, method of Example 3-1), OD 450 nm [right panel]).

binding, binds:
B6, B7, B13, B14, B8, B9, B10, B11
